Assay results published in article PMC3215731.
Results are given in words; binding and its absence hold for the method and conditions named. In cells and extracts the contact can be indirect. Some binding calls cover weakened binding; strength is not graded here.

Sequences of proteins named here, by UniProt entry; tags and fusion partners are left off. Residues count along the entry.
UniProt P20333, residues 23-461: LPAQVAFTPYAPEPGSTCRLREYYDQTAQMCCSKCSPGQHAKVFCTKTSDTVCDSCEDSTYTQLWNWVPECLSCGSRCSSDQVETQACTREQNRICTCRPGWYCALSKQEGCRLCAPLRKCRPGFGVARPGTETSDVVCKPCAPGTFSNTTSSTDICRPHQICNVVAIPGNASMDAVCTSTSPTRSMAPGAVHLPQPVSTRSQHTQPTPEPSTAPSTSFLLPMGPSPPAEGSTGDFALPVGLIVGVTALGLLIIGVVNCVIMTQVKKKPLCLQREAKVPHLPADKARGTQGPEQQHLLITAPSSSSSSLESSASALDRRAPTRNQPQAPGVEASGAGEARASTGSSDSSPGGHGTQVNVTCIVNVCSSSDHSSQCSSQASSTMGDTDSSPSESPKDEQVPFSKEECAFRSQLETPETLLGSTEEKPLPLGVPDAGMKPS

Biological target: human TNF receptor 2 (huTNFR2) expressed in R2 MEF (human) (UniProt P20333)
Test: co-IP; R2 MEF stimulated with TNC-scTNFR2 (20 ng/ml) for the indicated times; lysis in 0.5% Triton X-100, 0.5% NP-40 buffer; TNFR2 precipitated with MR2-1 antibody and protein G agarose; immunoblot with anti-huTNFR2 and anti-TRAF2

B1: TRAF2 (endogenous in R2 MEF) (protein, UniProt P39429 1-501)
chain: MAAASVTSPGSLELLQPGFSKTLLGTRLEAKYLCSACKNILRRPFQAQCGHRYCSFCLTSILSSGPQNCAACVYEGLYEEGISILESSSAFPDNAARREVESLPAVCPNDGCTWKGTLKEYESCHEGLCPFLLTECPACKGLVRLSEKEHHTEQECPKRSLSCQHCRAPCSHVDLEVHYEVCPKFPLTCDGCGKKKIPRETFQDHVRACSKCRVLCRFHTVGCSEMVETENLQDHELQRLREHLALLLSSFLEAQASPGTLNQVGPELLQRCQILEQKIATFENIVCVLNREVERVAVTAEACSRQHRLDQDKIEALSNKVQQLERSIGLKDLAMADLEQKVSELEVSTYDGVFIWKISDFTRKRQEAVAGRTPAIFSPAFYTSRYGYKMCLRVYLNGDGTGRGTHLSLFFVVMKGPNDALLQWPFNQKVTLMLLDHNNREHVIDAFRPDVTSSSFQRPVSDMNIASGCPLFCPVSKMEAKNSYVRDDAIFIKAIVDLTGL
binding: binds
